Results reported in PMC8490984.

By UniProt entry, the sequences of proteins in these tests, tags left out.
UniProt P32495: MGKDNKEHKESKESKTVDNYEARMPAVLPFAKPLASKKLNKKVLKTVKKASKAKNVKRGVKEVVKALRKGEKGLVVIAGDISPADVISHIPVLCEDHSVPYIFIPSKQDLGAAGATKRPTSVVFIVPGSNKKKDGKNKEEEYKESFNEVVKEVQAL
UniProt P33322: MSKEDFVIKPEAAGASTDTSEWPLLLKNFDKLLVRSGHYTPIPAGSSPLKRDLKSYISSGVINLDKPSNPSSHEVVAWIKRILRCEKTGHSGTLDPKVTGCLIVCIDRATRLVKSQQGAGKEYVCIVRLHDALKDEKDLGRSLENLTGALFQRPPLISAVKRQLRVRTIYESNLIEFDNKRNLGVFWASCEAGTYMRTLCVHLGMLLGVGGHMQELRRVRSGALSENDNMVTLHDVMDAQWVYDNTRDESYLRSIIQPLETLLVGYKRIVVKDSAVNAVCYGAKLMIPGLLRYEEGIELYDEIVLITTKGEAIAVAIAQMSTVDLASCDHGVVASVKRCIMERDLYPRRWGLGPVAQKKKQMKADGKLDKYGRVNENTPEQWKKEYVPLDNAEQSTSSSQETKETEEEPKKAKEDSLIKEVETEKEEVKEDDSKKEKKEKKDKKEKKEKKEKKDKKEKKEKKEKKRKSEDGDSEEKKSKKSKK
UniProt P28007: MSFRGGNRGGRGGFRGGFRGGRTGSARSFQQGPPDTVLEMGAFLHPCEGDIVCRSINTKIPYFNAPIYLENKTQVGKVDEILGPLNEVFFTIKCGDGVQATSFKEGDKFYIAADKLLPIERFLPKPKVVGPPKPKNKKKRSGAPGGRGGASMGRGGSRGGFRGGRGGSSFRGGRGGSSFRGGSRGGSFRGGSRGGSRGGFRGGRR

B1: Mpp10 (protein, UniProt P47083 1-593)
chain: MSELFGVLKSNAGRIILKDPSATSKDVKAYIDSVINTCKNGSITKKAELDEITVDGLDANQVWWQVKLVLDSIDGDLIQGIQELKDVVTPSHNLSDGSTLNSSSGEESELEEAESVFKEKQMLSADVSEIEEQSNDSLSENDEEPSMDDEKTSAEAAREEFAEEKRISSGQDERHSSPDPYGINDKFFDLEKFNRDTLAAEDSNEASEGSEDEDIDYFQDMPSDDEEEEAIYYEDFFDKPTKEPVKKHSDVKDPKEDEELDEEEHDSAMDKVKLDLFADEEDEPNAEGVGEASDKNLSSFEKQQIEIRKQIEQLENEAVAEKKWSLKGEVKAKDRPEDALLTEELEFDRTAKPVPVITSEVTESLEDMIRRRIQDSNFDDLQRRTLLDITRKSQRPQFELSDVKSSKSLAEIYEDDYTRAEDESALSEELQKAHSEISELYANLVYKLDVLSSVHFVPKPASTSLEIRVETPTISMEDAQPLYMSNASSLAPQEIYNVGKAEKDGEIRLKNGVAMSKEELTREDKNRLRRALKRKRSKANLPNVNKRSKRNDVVDTLSKAKNITVINQKGEKKDVSGKTKKSRSGPDSTNIKL
B2: Imp4 (protein, UniProt P53941 1-290)
chain: MLRRQARERREYLYRKAQELQDSQLQQKRQIIKQALAQGKPLPKELAEDESLQKDFRYDQSLKESEEADDLQVDDEYAATSGIMDPRIIVTTSRDPSTRLSQFAKEIKLLFPNAVRLNRGNYVMPNLVDACKKSGTTDLVVLHEHRGVPTSLTISHFPHGPTAQFSLHNVVMRHDIINAGNQSEVNPHLIFDNFTTALGKRVVCILKHLFNAGPKKDSERVITFANRGDFISVRQHVYVRTREGVEIAEVGPRFEMRLFELRLGTLENKDADVEWQLRRFIRTANKKDYL

Biological target: myc-tagged Nhp2 (S. cerevisiae) (UniProt P32495)
Assay: affinity purification with mass spectrometry; IP of Nhp2-myc with anti-myc antibody on Protein G Dynabeads from cleared yeast lysate (1 mg/ml), overnight at 4°C, washes in TBS; label-free quantification against the untagged parental strain

Q: For Cbf5 (from UniProt P33322 1-483), which binding is on record?
A: Its binding is “binds”.

Q: With Gar1 (from UniProt P28007 1-205) as the molecule, how does the binding read?
A: Its binding is “binds”.

Q: How did the binding turn out when B1 was run?
A: The binding was “binds”.

Q: How did the binding turn out when B2 was run?
A: The binding was “binds”.

These are yes or no findings as the source states them, for the method shown. In cells and extracts the contact can be indirect. These calls come from enrichment with a bait or labelling near it, and not all partners need be listed.
